{"source": "PubChem BioAssay AID1159584 – Peter MacCallum Cancer Centre – 2016", "assay": "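Knock-downs that harm CDH1-null cells more than parental MCF10A cells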 (primary screen)", "system": "human MCF10A breast epithelial cells, parental and CDH1-null", "knock-down reagent": "siRNA against human genes", "measurement": "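ATP luminescence (CellTiter-Glo) viability per line relative to mean mock wells over all plates, and the ratio of CDH1-null to parental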", "scale": "CDH1-null / parental viability ratio: higher = CDH1-null cells survive relatively better than parental; CDH1-null viability vs mock: higher = more viable CDH1-null cells", "units": "CDH1-null viability vs mock in fraction of mock", "note": "This is one part, drawn at random, of about 18,000 reagents. Further read-outs or replicates are left out here. Reagent sequences are not shown. The record does not give: the amount of reagent, the time to read-out."}
{"gene knocked down": "LAMB2 (laminin subunit beta 2)", "CDH1-null / parental viability ratio": 1.24, "CDH1-null viability vs mock": 0.92}
{"gene knocked down": "NT5DC1 (5'-nucleotidase domain containing 1)", "CDH1-null / parental viability ratio": 0.69, "CDH1-null viability vs mock": 0.66}
{"gene knocked down": "UBE2E2 (ubiquitin conjugating enzyme E2 E2)", "CDH1-null / parental viability ratio": 1.05, "CDH1-null viability vs mock": 0.96}
{"gene knocked down": "H2AC6 (H2A clustered histone 6)", "CDH1-null / parental viability ratio": 0.78, "CDH1-null viability vs mock": 0.47}
{"gene knocked down": "NAA20 (N-alpha-acetyltransferase 20, NatB catalytic subunit)", "CDH1-null / parental viability ratio": 1.24, "CDH1-null viability vs mock": 0.84}

2 of these entries, reformatted.
NT5DC1 (5'-nucleotidase domain containing 1)
- CDH1-null / parental viability ratio: 0.69
- CDH1-null viability vs mock: 0.66

UBE2E2 (ubiquitin conjugating enzyme E2 E2)
- CDH1-null / parental viability ratio: 1.05
- CDH1-null viability vs mock: 0.96

Next entries follow:
{"gene knocked down": "MIA (MIA SH3 domain containing)", "CDH1-null / parental viability ratio": 0.85, "CDH1-null viability vs mock": 0.66}
{"gene knocked down": "MTHFSD (methenyltetrahydrofolate synthetase domain containing)", "CDH1-null / parental viability ratio": 0.97, "CDH1-null viability vs mock": 0.71}
{"gene knocked down": "FGFR1 (fibroblast growth factor receptor 1)", "CDH1-null / parental viability ratio": 1.15, "CDH1-null viability vs mock": 0.94}
{"gene knocked down": "B4GALT1 (beta-1,4-galactosyltransferase 1)", "CDH1-null / parental viability ratio": 1.08, "CDH1-null viability vs mock": 0.8}
{"gene knocked down": "MMAA (metabolism of cobalamin associated A)", "CDH1-null / parental viability ratio": 1.1, "CDH1-null viability vs mock": 0.86}
{"gene knocked down": "CIPC (CLOCK interacting pacemaker)", "CDH1-null / parental viability ratio": 1.2, "CDH1-null viability vs mock": 0.9}
{"gene knocked down": "ANXA9 (annexin A9)", "CDH1-null / parental viability ratio": 1.5, "CDH1-null viability vs mock": 0.33}
{"gene knocked down": "CRP (C-reactive protein)", "CDH1-null / parental viability ratio": 0.96, "CDH1-null viability vs mock": 0.73}
{"gene knocked down": "CD72 (CD72 molecule)", "CDH1-null / parental viability ratio": 0.96, "CDH1-null viability vs mock": 0.71}
